Source: publication PMC4015341
These are yes or no findings as the source states them, for the method shown. Binding seen in cells or lysates may run through a third protein. Binding calls can cover weak binding; strength is not graded here. Tags and fused reporters may be left off the sequences shown. Each block holds one binder with its values, some of them ahead of it.

Molecular target: LUFS domain of LUH as N-LUC fusion (Arabidopsis thaliana)
Assay: split reporter; split luciferase complementation in Arabidopsis protoplasts; 15 ug of each N-LUC and C-LUC fusion plasmid, 5 x 10^4 protoplasts, 16 h in the dark at room temperature; LUC relative to Renilla LUC

- binding: binds
B1: SLK1 as C-LUC fusion (protein, UniProt Q0WVM7 1-748)
chain: MNRTVVSGAVESSFSLTDAVGTEALNMQRSSGINNNMRIPTSPMSFSSNSVNIPGSLVLDGSAASMQHLPQQQQQQLLQQQTGQGSVPMRENNYSHVDKKPRLEVKQEDMLQQQILQQLIQRQDPTGRNPQMQALLQQQRLRQHQQMLQSMSPSQRLQLQQQQQLRQQLQQQGTQQIPPNVRPYEVGVCARKLMMYLYHLQQRPAENCITYWRKFVAEYFSPRAKQRLCLSQYESAGHHALGMFPQAAPDMWQCDLCGTKSGKGFEATFDVLARLIEIKFASGIIDELLYLDHPRENRFPNGLMMLEYRKAVQETVHEQFRVVREGHLRIIFSQDLKILSWEFCARRHEELLLRRLIAPQVNQLLQVAQKCQSTISESGSEGVSQQDLQSNSNMVLGAGRQLAKFMELQSLNDLGYPKRYIRTLQISEVVKSMKDLMNFTGEQKIGPIEGLKRLLEQTVTVKLQKQKMQEMEQFGNNGAINGPVQAQMVLTSGTMNGSTGNNTNNHHQIVGRGAMSGPAEGQMVISSGTVSGATANNNSNNHNQIVGRGAMNGSAQAAAALTNYQSMLMRQNAMNNPNSNTGKQEGFSSQNPTPNSNQSPSSSSQQRHNLVTGGFPNSPQMQQQQRTMNGPTNILPQNHPHQLQSPHSHGNTPEQQMLHQLLQEMSENGGSVQQQQAFSGQSGSNSNAERNTTASTSNISGGGRAPSRNNSFKAASNNNLHFSEDISITDHDFSEDGFFNNNDIYGGL

- binding: binds
B2: SLK2 as C-LUC fusion (protein, UniProt Q94BP0 1-816)
chain: MASSTSGIFFQGDDESQSFINSHLTSSYGNSSNSAPGCGGPTGGYHNLSMVSGDMHNPVMMSVSTPGPSAGASSLVTDANSGLSGGGPHLQRSASINNESYMRLPASPMSFSSNNISISGSSVVDGSTVVQRHDPSVQLGGSSATSLPTSQTNQIPLSMARRASESFFQDPNNLTQARKKPRLDSKQDDALQQQILRQWLQRQDILQQQQQQQQQGQNPQFQILLQQQKLRQQQQYLQSLPPLQRVQLQQQQQVQQQQQLQQQHQQQQQQLQQQGMQMQLTGGPRPYENSVCARRLMQYLYHQRQRPSESSIVYWRKFVTEYFSPRAKKRWCLSHYDNVGHSALGVSPQAATDEWQCDLCGSKSGRGFEATFDVLPRLNEIKFASGVLDELLYLGVPSERRYGSGIMVLEYGKAVQESVYEHIRVVREGHLRIIFSQELKILSWEFCTRRHEELLPRRLVAPQVNQLLQVAEKCQSTIDQSGSDGIHQQDLQANSNMVMAAGRQLAKSLESHSLNDLGFSKRYVRCLQISEVVSSMKDMIDFCRDQKVGPIEALKSYPYRMKAGKPQMQEMEQLAAARGLPPDRNSLNKLMALRNSGINIPMNNMSGQGSLPGSAQAAAFALTNYQSMLMKQNHLNSDLNNTTIQQEPSRNRSASPSYQGTSPLLPGFVHSPSISGVSSHLSPQRQMPSSSYNGSTQQYHQQPPSCSSGNQTLEQQMIHQIWQQMANSNGGSGQQQQSLSGQNMMNCNTNMGRNRTDYVPAAAETPSTSNRFRGIKGLDQSQNLEGIISNTSLNFGNNGVFSNEVDESMGGYSWKS
